Measurements published in article PMC12241364.
Results are given in words; binding and its absence hold for the method and conditions named. Binding seen in cells or lysates may run through a third protein. Here binding means that the protein was enriched with, or labelled near, the bait; the list need not be complete. A no says only that the protein was not detected with the bait.

By UniProt entry, the sequences of proteins in these tests, tags left out.
UniProt Q0D2I5: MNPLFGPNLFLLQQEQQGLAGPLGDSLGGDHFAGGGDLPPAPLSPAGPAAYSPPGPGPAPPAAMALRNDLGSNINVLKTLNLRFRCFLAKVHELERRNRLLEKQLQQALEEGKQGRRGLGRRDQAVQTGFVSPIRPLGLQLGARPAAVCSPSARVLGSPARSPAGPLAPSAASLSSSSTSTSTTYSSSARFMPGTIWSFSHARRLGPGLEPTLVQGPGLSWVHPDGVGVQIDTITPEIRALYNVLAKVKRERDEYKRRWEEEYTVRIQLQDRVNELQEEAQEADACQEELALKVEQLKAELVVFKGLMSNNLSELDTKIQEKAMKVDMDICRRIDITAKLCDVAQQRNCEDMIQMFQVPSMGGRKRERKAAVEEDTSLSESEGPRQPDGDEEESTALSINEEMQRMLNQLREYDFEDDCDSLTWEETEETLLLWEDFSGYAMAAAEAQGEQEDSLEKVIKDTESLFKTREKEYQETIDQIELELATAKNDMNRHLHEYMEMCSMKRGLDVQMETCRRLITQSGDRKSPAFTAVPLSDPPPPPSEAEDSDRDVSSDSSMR
UniProt P60953: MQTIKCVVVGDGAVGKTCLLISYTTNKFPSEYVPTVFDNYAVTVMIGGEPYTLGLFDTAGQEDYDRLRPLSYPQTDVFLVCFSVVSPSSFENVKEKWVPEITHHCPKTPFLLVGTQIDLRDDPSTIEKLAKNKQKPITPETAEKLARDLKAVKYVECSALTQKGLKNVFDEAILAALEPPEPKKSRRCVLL
UniProt Q86VI3: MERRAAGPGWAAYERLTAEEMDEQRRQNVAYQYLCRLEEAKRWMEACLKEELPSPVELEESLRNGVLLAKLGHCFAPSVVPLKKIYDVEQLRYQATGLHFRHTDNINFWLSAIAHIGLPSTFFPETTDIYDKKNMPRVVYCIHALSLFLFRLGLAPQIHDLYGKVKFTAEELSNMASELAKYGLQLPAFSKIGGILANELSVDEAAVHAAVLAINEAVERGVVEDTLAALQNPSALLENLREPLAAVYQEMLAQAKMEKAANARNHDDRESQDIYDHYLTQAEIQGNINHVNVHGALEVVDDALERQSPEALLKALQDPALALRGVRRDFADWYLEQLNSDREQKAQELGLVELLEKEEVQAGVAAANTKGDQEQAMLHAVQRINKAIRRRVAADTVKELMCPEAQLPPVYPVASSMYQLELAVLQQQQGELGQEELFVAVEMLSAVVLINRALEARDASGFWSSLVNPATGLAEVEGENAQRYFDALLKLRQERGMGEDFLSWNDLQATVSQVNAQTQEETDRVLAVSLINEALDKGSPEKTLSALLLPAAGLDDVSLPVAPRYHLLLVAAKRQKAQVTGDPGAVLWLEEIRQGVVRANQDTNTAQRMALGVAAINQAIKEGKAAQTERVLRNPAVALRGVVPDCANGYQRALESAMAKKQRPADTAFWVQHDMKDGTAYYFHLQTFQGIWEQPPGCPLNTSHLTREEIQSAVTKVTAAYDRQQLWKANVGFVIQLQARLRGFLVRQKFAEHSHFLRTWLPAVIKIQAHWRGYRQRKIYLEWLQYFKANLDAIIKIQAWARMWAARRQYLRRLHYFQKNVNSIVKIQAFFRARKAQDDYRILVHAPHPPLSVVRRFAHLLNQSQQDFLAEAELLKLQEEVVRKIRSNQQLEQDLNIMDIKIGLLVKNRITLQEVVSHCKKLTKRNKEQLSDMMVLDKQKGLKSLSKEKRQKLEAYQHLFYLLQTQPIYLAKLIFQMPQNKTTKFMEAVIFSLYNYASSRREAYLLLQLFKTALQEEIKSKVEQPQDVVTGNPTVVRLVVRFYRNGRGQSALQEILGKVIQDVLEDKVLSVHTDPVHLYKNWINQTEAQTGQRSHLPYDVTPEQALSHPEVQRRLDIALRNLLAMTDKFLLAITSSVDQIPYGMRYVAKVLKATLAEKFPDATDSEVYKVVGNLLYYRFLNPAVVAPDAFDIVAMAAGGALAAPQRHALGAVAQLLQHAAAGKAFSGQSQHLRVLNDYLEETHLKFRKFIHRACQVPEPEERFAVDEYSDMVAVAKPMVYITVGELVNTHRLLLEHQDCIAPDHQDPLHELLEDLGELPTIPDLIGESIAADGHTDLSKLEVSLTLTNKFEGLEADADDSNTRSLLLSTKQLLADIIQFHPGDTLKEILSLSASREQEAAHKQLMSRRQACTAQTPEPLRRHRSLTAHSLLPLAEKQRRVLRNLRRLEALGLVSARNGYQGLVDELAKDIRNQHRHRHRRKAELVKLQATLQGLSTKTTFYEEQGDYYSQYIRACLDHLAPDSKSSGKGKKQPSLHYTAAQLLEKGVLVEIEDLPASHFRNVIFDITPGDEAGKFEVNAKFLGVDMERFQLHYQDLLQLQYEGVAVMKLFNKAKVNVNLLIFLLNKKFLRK

Target: Flag-tagged IFFO1 (full-length) (UniProt Q0D2I5)
Test: affinity purification with mass spectrometry; Flag-tagged IFFO1 immunoprecipitated from tumor cells; silver staining and peptide identification by LC-MS/MS

## Cdc42, endogenous (from UniProt P60953 1-191)
  binding: no binding

## IQGAP3 (IQ motif-containing GTPase-activating protein 3), endogenous (from UniProt Q86VI3 1-1631)
  binding: binds
